Laboratory results: patent publication US10280183B2, “Therapeutic agent for treating tumors” (THE RESEARCH FOUNDATION FOR THE STATE UNIVERSITY OF NEW YORK, priority 2014, dated 2019)
Some of these results come from one statement about several compounds together.

Test system: BR+ cancer cell lines (L1210FR, MX-1, ID8)
Assay: MTT cytotoxicity summarised over BR+ cancer cell lines
Type: cell-based
Conditions: for Potency lower than free warhead taxoid 3: 48 h incubation, three BR+ cancer cell lines; for Potency lower than free taxoid 3 in the same assay / Selectivity (BR specificity) for BR+ cancer cell lines: absence of GSH-OEt, 48 h and 72 h incubation; for Selectivity (BR specificity) for BR+ cancer cell lines: three BR+ lines vs BR− cells
Protocol: In Vitro Cytotoxicity Assays. […] Cells were harvested, collected, and resuspended in 100 μL cell culture medium at concentrations ranging from 0.5-1.5×10^4 cells per well in a 96-well plate. For adhesive cell types, cells were allowed to descend to the bottom of the wells overnight, and fresh medium was added to each well upon removal of the old medium.
For the MTT assay (Table 1 and the Assay 1 in Table 2) of paclitaxel, taxoid 3 and conjugates 1 and 15, cells were resuspended in 200 μL medium with 8,000 to 10,000 cells per well of a 96-well plate and incubated at 37° C. for 24 h before drug treatment. In DMSO stock solutions, each drug or conjugate was diluted to a series of concentrations in cell culture medium to prepare test solutions. After removing the old medium, these test solutions were added to the wells in the 96-well plate to give the final concentrations ranging from 0.5 to 5,000 nM (100 μL), and the cells were subsequently cultured at 37° C. for 48 h (Table 1) or 72 h (Table 2, Assay 1). For the leukemia cell lines, L1210 and L1210FR, cells were harvested, collected, and resuspended in the test solutions ranging from 0.5 to 5,000 nM (100 μL) at 0.5 to 0.8 ×10^4 cells per well in a 96-well plate and subsequently incubated at 37° C. for 48 h (Table 1) or 72 h (Table 2, Assay 1).
In the Assay 2 (Table 2), cells were incubated with 1 or 15 at 37° C. for 24 h, and the drug medium was removed. Then, treated cells were thoroughly washed with PBS, and GSH-OEt (6 equiv. to conjugate) in cell culture medium (200 μL) was added to the wells. These cells were incubated at 37° C. for an additional 48 h, i.e., the total incubation time was 72 h.
In the Assay 3 (Table 2), cells were incubated with 1 or 15 at 37° C. for 24 h, and GSH-OEt (6 equivalents) in cell culture medium (100 μL) was directly added to the wells. These cells were incubated at 37° C. for an additional 48 h, i.e. the total incubation time was also 72 h.
For all experiments, after removing the test medium, fresh solution of MTT in PBS (40 μL of 0.5 mg MTT/mL) was added to the wells, and the cells were incubated at 37° C. for 3 h. The MTT solution was then removed, and the resulting insoluble violet formazan crystals were dissolved in 0.1 N HCl in isopropanol with 10% Triton X-100 (40 μL) to give a violet solution. The spectrophotometric absorbance measurement of each well in the 96-well plate was run at 570 nm using a Labsystems Multiskan Ascent microplate reader. The IC50 values and their standard errors were calculated from the viability-concentration curve using Four Parameter Logistic Model of Sigmaplot. The concentration of DMSO per well was ≤1% in all cases. Each experiment was run in triplicate.
Thus, the Assay 1 results provide the potency of conjugates in the same manner as that for the first assay summarized in Table 1, but for longer incubation time (48 h vs. 72 h). […] Accordingly, this assay may mimic the corresponding in vivo assay conditions, wherein non-internalized conjugates would be removed from the tumor, redistributed and eventually excreted. […] Thus, in principle, the results (IC50 values) in this assay should be very close to those for the control using taxoid 3 (entry 2).

CC(=O)O[C@@]12CO[C@@H]1C[C@H](O)[C@@]1(C)C(=O)[C@H](OC(=O)C3CC3)C3=C(C)[C@@H](OC(=O)[C@H](OC(=O)Cc4ccccc4SSC(C)C(=O)NCCNc4nc(NCCOCCOCCOCCNC(=O)CCCC[C@@H]5SC[C@@H]6NC(=O)N[C@@H]65)nc(NCc5cn(CCOCCOCCOCCF)nn5)n4)[C@H](C=C(C)C)NC(=O)OC(C)(C)C)C[C@@](O)([C@@H](OC(=O)c4ccccc4)[C@H]21)C3(C)C (stereo partly drawn) [Conjugate 1]
Potency lower than free warhead taxoid 3: 3-30 times
Potency lower than free taxoid 3 in the same assay: 2-30 times
Selectivity (BR specificity) for BR+ cancer cell lines: 30-120 times

CC(=O)O[C@@]12CO[C@@H]1C[C@H](O)[C@@]1(C)C(=O)[C@H](OC(=O)C3CC3)C3=C(C)[C@@H](OC(=O)[C@H](OC(=O)Cc4ccccc4SSC(C)CCC(=O)NNC(=O)CCCC[C@@H]4SC[C@@H]5NC(=O)N[C@@H]54)[C@H](C=C(C)C)NC(=O)OC(C)(C)C)C[C@@](O)([C@@H](OC(=O)c4ccccc4)[C@H]21)C3(C)C (stereo partly drawn) [Conjugate 15, Biotin-(SS-Linker)-SB-T-1214]
Potency lower than free warhead taxoid 3: 3-30 times
Potency lower than free taxoid 3 in the same assay: 2-30 times
Selectivity (BR specificity) for BR+ cancer cell lines: 30-120 times
